The test system of one assay is Blastococcus sp. S21A-2. The assay is classed as cell-based. To be noted: Blastococcus sp. S21A-2, isolated from acne lesions. The protocol:
(§1) MIC of besifloxacin and other antibiotics molecules were determined by micro broth dilution method as per the Clinical and Laboratory Standards Institute (CLSI) guideline. MIC assay is the determinant of the inherent anti-microbial potency of a particular molecule. For preparing inoculum, bacterial strains were cultured in Brain Heart Infusion Agar (BHIA) at 37° C. for 24 hours. […] For bacterial inoculum, bacterial culture turbidity was adjusted to 0.1 OD at 600 nm in UV-Visual spectrophotometer (approximately 1.5×10^8 cells/ml) and further diluted (100 times with sterile BHI broth). Diluted bacterial suspension (100 μl) was added to each well except sterility control wells (column 12 of 96 well plate). Column 11 of 96 well plate was used as growth control and vehicle control. The plates were incubated at 37° C. for 24 h. The MIC of the test compounds were determined by observing the lowest concentration of test compound that prevented the visual bacterial growth.
(§2) Different skin resident bacteria were isolated from acne lesions of moderate to severe acne patients.

The subject of a further assay is P. acnes V3-1. The assay can be described thus: MIC against bacteria isolated from acne lesions, Table 2. It counts as cell-based, Propionibacterium acnes. To be noted: Cutibacterium acnes, V31; P. acnes V3-1, isolated from acne lesions; read-out: Minimum Inhibitory Concentration. How it is done: as §1, §2
Assay [1] deals with Enterobacter aerogenes M2-1. The description is as above. The following applies: Klebsiella aerogenes, M21; Enterobacter aerogenes M2-1, isolated from acne lesions; read-out: Minimum Inhibitory Concentration. The assay is classed as cell-based. The protocol: as §1, §2
Another assay has as its system P. avidum S3-1. The description is as above. The assay is classed as cell-based. To be noted: Cutibacterium avidum, S31; P. avidum S3-1, isolated from acne lesions; read-out: Minimum Inhibitory Concentration. How it is done: as §1, §2
The next assay has as its system Microbacterium sp. S20-2. The assay is described as above. To be noted: Microbacterium sp. S20-2, isolated from acne lesions. It counts as cell-based. How it is done:
as §1, §2

Assay [2] deals with Bacillus megaterium M1-2. The assay is described as above. The assay is classed as cell-based. The following applies: Priestia megaterium, M12., read-out: Minimum Inhibitory Concentration. How it is done:
as §1, §2

Assay [3] concerns Staphylococcus haemolyticus M1-1. Described as above. The assay is classed as cell-based. The following applies: M11; Staphylococcus haemolyticus M1-1, isolated from acne lesions; read-out: Minimum Inhibitory Concentration. How it is done: as §1, §2
For a further assay, the system named is K. pneumoniae S6-1. The assay is described as above. The assay is classed as cell-based. To be noted: Klebsiella pneumoniae, S61; K. pneumoniae S6-1, isolated from acne lesions; read-out: Minimum Inhibitory Concentration. The protocol: as §1, §2
The next assay relates to S. epidermidis S1-1. Described as above. It counts as cell-based. To be noted: Staphylococcus epidermidis, S11; S. epidermidis S1-1, isolated from acne lesions; read-out: Minimum Inhibitory Concentration. How it is done: as §1, §2
The test system of a further assay is Kocuria sp. S18-1. Described as above. To be noted: SP.S181; Kocuria sp. S18-1, isolated from acne lesions; read-out: Minimum Inhibitory Concentration. The assay is classed as cell-based. How it is done:
as §1, §2

In assay [4] the test system is Dermatobacter hominis S11-2. Described as above. It counts as cell-based. To be noted: S112; Dermatobacter hominis S11-2, isolated from acne lesions; read-out: Minimum Inhibitory Concentration. The protocol: as §1, §2

This note sets out measurements from US20210393520A1, “TREATMENT OF GRAM-NEGATIVE FOLLICULITIS OR AN INFLAMMATION THEREOF WITH BESIFLOXACIN” (VYOME THERAPEUTICS LIMITED, priority 2018, published 2021).

In brackets after ≈: the same amount, converted by molar mass.

`CCC[C@@H]1C[C@@H](C(=O)N[C@@H]([C@H]2O[C@H](SC)[C@H](O)[C@@H](O)[C@H]2O)[C@H](C)Cl)N(C)C1` [Clindamycin]: the “Minimum Inhibitory Concentration” value is 0.25 µg/mL in the assay with Blastococcus sp. S21A-2 and more than 4 µg/mL in the assay with Microbacterium sp. S20-2. Further, the MIC in the assay on P. acnes V3-1 was 0.5 µg/mL (≈ 1.18 µM); in [1], more than 4 µg/mL; in the assay with P. avidum S3-1 it was 0.06 µg/mL (≈ 0.141 µM); in [2], more than 4 µg/mL; in assay [3], 0.13 µg/mL (≈ 0.306 µM); with K. pneumoniae S6-1 it was more than 4 µg/mL. Further, the MIC with S. epidermidis S1-1 is more than 4 µg/mL; in the assay with Kocuria sp. S18-1, 1 µg/mL (≈ 2.35 µM); in [4], more than 4 µg/mL.
